The whole screen tested about 400,000 compounds, of which about 13,000 (3.2%) were called active. This list was built around the results that the source calls inconclusive (neither active nor inactive); the mix of calls is not that of the screen. Calls come from the whole dose curve; as a rule, active = well fitted cell-killing curve with a large enough effect; inconclusive = small, poorly fitted or top-dose-only effect, or effect the other way; inactive = flat fitted curve, though single readings scatter. Where the call is inconclusive, the potency comes from a doubtful curve fit.
Assay: qHTS assay for MDR1-selective chemotherapeutics: Primary screen using the drug-selected MDR subline cells KB-V1; note: nearly all actives have a fitted effect of over 60% in size
Conditions: KB-V1 MDR cells viability, CellTiter-Glo, 72 h; activity change, negative = cytotoxicity: at 46.1 µM (top of the series)
Summary of the method: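 In this primary screen, KB-V1 cells overexpressing P-gp are incubated with library compounds (lowest to highest concentration) for 72 h at 37 degrees C before a luminescent ATP viability read.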
% is set by controls: 0 for no effect and ±100 for the full control effect; potency is the fitted concentration of half-maximal effect.

Structure (SMILES) | Potency | activity change, negative = cytotoxicity
CC(=O)c1cc(C)ccc1OC(=O)c1ccco1 | inactive | –
CCOC(=O)CSc1nc2ccccc2c(=O)n1NC(=O)c1ccccc1 | inconclusive: 6.51 µM [cytotoxic, partial curve] | –
O=C(CSc1nc2ccccc2nc1N1CCCCC1)Nc1ccc(F)cc1 | inconclusive: 20.6 µM [cytotoxic, partial curve, poor fit] | –
COc1cc(/C=N/NC(=O)C2(O)c3ccccc3-c3ccccc32)ccc1O | inactive | –
O=C(C=Cc1cccs1)c1ccc(Cl)s1 | inconclusive: 25.9 µM [rising, single point] | –
Cc1ccc(CNC(=O)C2CCN(c3nnc(N4CCCC4=O)s3)CC2)cc1 | inactive | –
COCCNC(=O)C1CCCN(Cc2cccc(C(F)(F)F)c2)CC1 (centres undefined) | inactive | –
Cc1cc(C)c(N(CC(=O)NCc2ccccc2)C(=O)c2csnn2)c(C)c1 | inconclusive: 2.31 µM [rising, partial curve, poor fit] | –
CC1CCCC(C)N1CC(O)COC1CCC(C(C)(C)C)CC1 (centres undefined) | inactive | –
COCCCNC(=O)CCc1c(C)c2cc3c(C)coc3cc2oc1=O | inactive | –
O=C(Nc1ccnn1C1CCN(C/C=C/c2ccc(F)cc2)CC1)C1CCCC1 | inconclusive: 4.61 µM [cytotoxic, full curve, poor fit] | –
CCN(CC)S(=O)(=O)c1cccc(C(=O)Nc2cccc(C)c2)c1 | inconclusive: 20.6 µM [cytotoxic, single point] | –
CCCOCc1ccc(O)c2ncccc12 | inconclusive: 29.1 µM [cytotoxic, single point] | –
COc1ccc(NC(=S)N(Cc2cccnc2)Cc2ccco2)cc1 | inconclusive: 20.6 µM [cytotoxic, single point] | –
O=C(CCc1ccccc1)Nc1ccc(Cl)cn1 | inconclusive: 2.91 µM [cytotoxic, partial curve, poor fit] | –
Cc1ccc(Nc2ccc3cc(S(=O)(=O)N4CCC(C)CC4)ccc3n2)c(Cl)c1 | inactive | –
O=S(=O)(NCCC(c1ccc(F)cc1)c1ccco1)c1ccccc1 (centres undefined) | inconclusive: 16.4 µM [cytotoxic, single point] | –
CCN(CC)S(=O)(=O)c1ccc(NC(=O)CSc2nnc(-c3ccc(F)cc3)o2)cc1 | inconclusive: 23.1 µM [cytotoxic, single point] | –
C=CCn1c(SCC(=O)Nc2ccc(-c3nc4ccc(C)cc4s3)cc2)nnc1-c1ccccc1 | inconclusive: 10.3 µM [cytotoxic, partial curve, poor fit] | –
Cc1cc(C)n2c(Nc3ccc4c(c3)OCCO4)c(CCc3ccccc3)nc2n1 | inconclusive: 14.6 µM [cytotoxic, partial curve] | –
Cc1ccccc1Nc1cc(C(=O)NCc2ccco2)c2ccccc2n1 | active: 8.2 µM | –
Cc1cc(O)c(C(C)C)cc1NC(=S)Nc1cc(C(C)C)c(O)cc1C | inconclusive: 18.4 µM [cytotoxic, single point] | –
COc1ccc(OCc2ccc(C(=O)N3CCOCC3)cc2)cc1 | inconclusive: 23.1 µM [cytotoxic, single point] | –

Structure (SMILES) | Potency | activity change, negative = cytotoxicity
O=C(NCCc1ccccc1)C1CCCN1S(=O)(=O)c1ccc(Cl)cc1 (centres undefined) | inconclusive: 14.6 µM [cytotoxic, partial curve, poor fit] | –
CCOC(=O)N1CCC(NC(=O)c2cc3c(C)nc4ccccc4c3o2)CC1 | inconclusive: 18.4 µM [cytotoxic, single point] | –
COCCN(C(=O)COC(=O)CCS(=O)(=O)c1ccccc1)c1c(N)n(Cc2ccccc2)c(=O)[nH]c1=O | inconclusive: 23.1 µM [rising, partial curve, poor fit] | –
C=CCn1c(O)c(N=NC(=S)Nc2ccc(OC)c(Cl)c2)c2ccccc21 | inconclusive: 4.11 µM [cytotoxic, partial curve, poor fit] | –
CCN(CC(=O)Nc1c(F)cccc1F)C(=O)c1ccc(N2CCOCC2)c([N+](=O)[O-])c1 | inconclusive: 25.9 µM [cytotoxic, single point] | –
Cc1cc(C)n(-c2nc(Nc3ccccc3C(F)(F)F)nc(-n3nc(C)cc3C)n2)n1 | active: 0.92 µM | –
CC(C)Cn1cnc2c(SCc3ccccc3F)nc(N)nc21 | inconclusive: 29.1 µM [cytotoxic, single point] | –
COc1cccc(-c2sc3ccc(OC)cc3c2-c2ccc(OCCN(C)C)cc2)c1 | inconclusive: 29.1 µM [cytotoxic, single point] | –
Cc1nn(-c2c(Cl)cc(Cl)cc2Cl)c(=O)c2ccccc12 | inconclusive: 11.6 µM [cytotoxic, partial curve, poor fit] | –
O=C(NN=C1c2ccccc2-c2ccccc21)c1ccccc1Br | inactive | –
Cc1cccc(-n2c(SCC(=O)NCc3ccco3)nnc2-c2ccco2)c1 | inconclusive: 9.2 µM [cytotoxic, partial curve] | –
CCOC(=O)/C(=N/Nc1ccccc1)N1CCCc2ccccc21 | active: 16.4 µM | –
CCCCNC(=O)c1cc(-c2ccccc2)sc1N | inconclusive: 23.1 µM [cytotoxic, partial curve, poor fit] | –
COc1cc(/C=C(/C#N)C(=O)NCCc2c[nH]c3ccccc23)ccc1OCc1ccccc1F | inconclusive: 25.9 µM [cytotoxic, single point] | –
O=C(CSC(=S)N1CCCC1)Nc1cc2c(cc1Br)OCCO2 | inconclusive: 3.66 µM [cytotoxic, partial curve, poor fit] | –
Cc1ccc(N(CC(=O)NCCc2ccc(Cl)cc2)S(=O)(=O)c2c(C)noc2C)cc1 | inactive | –
COC(=O)C(Cc1ccccc1)NC(=O)CC(C)CC(=O)Nc1ccc(C)cc1 (centres undefined) | inactive | –
Cc1ccc(S(=O)(=O)Oc2cccc(/C=N/Nc3ccc(C(=O)O)cc3)c2)cc1 | inactive | –
COc1cccc(N2CCN(C(=O)c3ccc(C)c(NC(=O)c4nsc5ccccc45)c3)CC2)c1 | inactive | –
CCOc1cc(S(=O)(=O)NCc2ccccn2)ccc1Cl | inconclusive: 29.1 µM [cytotoxic, single point] | –
Cc1cccc(NS(=O)(=O)c2ccc(C)c(C(=O)NNC(=O)c3csc(N4CCOCC4)n3)c2)c1 | inconclusive: 20.6 µM [rising, partial curve] | –
COc1ccc(NC(=S)NCCN2CCC(C)CC2)cc1Cl | inconclusive: 16.4 µM [cytotoxic, partial curve, poor fit] | –
CCc1ccccc1NC(=O)CSc1n[nH]c(-c2cccnc2)n1 | – | inconclusive: 31.1%

Of the compounds above, seven contain an aryl thioether with sulfur outside any ring:
Structure (SMILES) | Potency | activity change, negative = cytotoxicity
CCOC(=O)CSc1nc2ccccc2c(=O)n1NC(=O)c1ccccc1 | inconclusive: 6.51 µM [cytotoxic, partial curve] | –
O=C(CSc1nc2ccccc2nc1N1CCCCC1)Nc1ccc(F)cc1 | inconclusive: 20.6 µM [cytotoxic, partial curve, poor fit] | –
CCN(CC)S(=O)(=O)c1ccc(NC(=O)CSc2nnc(-c3ccc(F)cc3)o2)cc1 | inconclusive: 23.1 µM [cytotoxic, single point] | –
C=CCn1c(SCC(=O)Nc2ccc(-c3nc4ccc(C)cc4s3)cc2)nnc1-c1ccccc1 | inconclusive: 10.3 µM [cytotoxic, partial curve, poor fit] | –
CC(C)Cn1cnc2c(SCc3ccccc3F)nc(N)nc21 | inconclusive: 29.1 µM [cytotoxic, single point] | –
Cc1cccc(-n2c(SCC(=O)NCc3ccco3)nnc2-c2ccco2)c1 | inconclusive: 9.2 µM [cytotoxic, partial curve] | –
CCc1ccccc1NC(=O)CSc1n[nH]c(-c2cccnc2)n1 | – | inconclusive: 31.1%

(list continues)

Structure (SMILES) | Potency | activity change, negative = cytotoxicity
CCN(CC)C(=O)COc1coc(CN2CCN(c3ccccc3)CC2)cc1=O | inconclusive: 29.1 µM [cytotoxic, single point] | –
CCCCc1ccc(S(=O)(=O)NC(=O)C2(C)CCN2C(=O)c2c(C)noc2C)cc1 (centres undefined) | inactive | –
CCN(c1ccccc1)S(=O)(=O)c1ccc(Cl)c(NC(=O)COC(=O)c2cccc(OC)c2O)c1 | inconclusive: 16.4 µM [cytotoxic, single point] | –
CCC(=O)Nc1nc(-c2ccc3c(c2)CC(C)N3S(C)(=O)=O)cs1 (centres undefined) | inactive | –
Cc1cc(C)c(S(=O)(=O)N2CCCCC2CCNC(=O)C(=O)NCC2CCCO2)c(C)c1 (centres undefined) | inconclusive: 6.51 µM [cytotoxic, partial curve] | –
COc1ccc(-c2ccc3c(N)c(C(=O)c4ccc(OC)c(OC)c4)sc3n2)cc1 | inactive | –
COC(=O)c1c(-c2ccccc2)csc1NC(=O)c1c(-c2ccccc2)noc1C | active: 5.8 µM | –
O=C(CSc1nc(-c2ccccc2)c(-c2ccccc2)o1)N1CCCCC1 | inconclusive: 18.4 µM [cytotoxic, partial curve] | –
CN(CCC#N)C(=O)CSc1ncnc2sc(-c3ccccc3)cc12 | inconclusive: 23.1 µM [cytotoxic, partial curve, poor fit] | –
O=[N+]([O-])c1ccccc1CNC(Cc1ccccc1)c1ccccc1 (centres undefined) | inconclusive: 20.6 µM [cytotoxic, single point] | –
CCCCCCCCCCOC(=O)Cn1c(COc2ccccc2)[n+](C)c2ccccc21 | inactive | –
O=C1c2ccccc2-c2c1nc1c([n+]2[O-])CCCC1 | inactive | –
Cc1ccc(-n2nc3c(=O)n(CC(=O)c4ccc(F)cc4)nc(C)c3c2C)cc1 | active: 2.91 µM | –
O=C(NCCCN1CCN(c2ccccc2F)CC1)C1CCC(=O)N1C1CCCC1 (centres undefined) | inactive | –
COc1cc2c(cc1OC)C(COc1ccc(F)cc1)N(C(C)=O)CC2 (centres undefined) | inactive | –
COc1ccc(Nc2ccc3c(c2)=NC2(CCCCC2)[N+]=3[O-])cc1 | inconclusive: 29.1 µM [cytotoxic, single point] | –
COc1cc(C(=O)NCC(c2ccco2)N2CCCC2)ccc1OCc1ccccc1 (centres undefined) | inconclusive: 20.6 µM [cytotoxic, single point] | –
COc1cccc(-c2sc3ccccc3c2-c2ccc(OCCN3CCCC3)cc2)c1 | inconclusive: 29.1 µM [cytotoxic, single point] | –
COC(=O)CC1(C(=O)OC)Oc2ccc(Br)cc2C(=O)N1c1cccc(Cl)c1Cl (centres undefined) | active: 5.17 µM | –
Cc1ncc(CO)c2c1Oc1nc(-c3ccccc3F)nc(SCC(=O)N(C)c3ccccc3)c1C2 | inconclusive: 25.9 µM [cytotoxic, single point] | –
CC(C)c1ccccc1NC(=O)Nc1nc(C(N)Cc2ccc(C(F)(F)F)cc2)cs1 (centres undefined) | inconclusive: 29.1 µM [cytotoxic, single point] | –
COc1ccc(OCCN2CCCC2)cc1Nc1nnc(Cl)c(Nc2ccccc2S(C)(=O)=O)n1 | inactive | –
O=C1c2ccccc2NC(c2ccc(Cl)cc2Cl)N1Cc1ccccc1 (centres undefined) | inactive | –

Exported comma-delimited: 2 of the compounds above.
Structure (SMILES),Potency,"activity change, negative = cytotoxicity"
O=C(Nc1ccnn1C1CCN(C/C=C/c2ccc(F)cc2)CC1)C1CCCC1,"inconclusive: 4.61 µM [cytotoxic, full curve, poor fit]",–
Cc1cccc(NS(=O)(=O)c2ccc(C)c(C(=O)NNC(=O)c3csc(N4CCOCC4)n3)c2)c1,"inconclusive: 20.6 µM [rising, partial curve]",–

Reference: PubChem BioAssay AID1347076 (National Center for Advancing Translational Sciences (NCATS), 2019)
